Some results were stated once for a whole list of compounds, not compound by compound. Some compounds share one range, which may span the group rather than tell each member.
Columns and labels:
[1] = DLS particle size and level of aggregation of ADGN-peptide/mRNA complexes; type: physicochemical; details: complexes with mRNA
Experimental: (§1) Complex formation with mRNA. The following protocols were used for the transfection of 2-5 106 Cells or Cells at confluency of about 70-80% cultured in 24 well plates. ADGN peptide/mRNA particles were prepared at a 20:1 molar ratio of ADGN-Peptide/mRNA. using (0.25 μg) mRNA. Luc mRNA (0.25 μg) was diluted in 20 μl of sterile water (GIBCO) at room temperature. 5 μl Final Peptide Solution was added to obtain a total volume of 20 μl. The volume was adjusted to 50 μl with sterile water and was mixed gently with vortex 1 min low speed and incubated 30 min at room temperature. Then the volume was made up to 100 μl by adding sterile water containing 5% sucrose, and the solution was mixed gently with vortex 1 min low speed and incubate 5 min at 37° C. and then was proceeded to cell transfection.
(§2) The ability of the different ADGN-peptides to form stable nanoparticles with mRNA was analyzed. The particle sizes and level of aggregation were measured on DLS NanoZS (Malvern Ltd). The mean size and the polydispersity of the ADGN/mRNA complexes were determined at 25° C. for 3 minute per measurement. In order to remove large particles, ADGN/mRNA complexed were filtered using either PES or PVDF 0.45 μm filters. Data are shown in FIG. 8 and FIG. 9 for a mean of 3 separate experiments.

[2] = DLS particle size and level of aggregation of ADGN-peptide/pGL4 plasmid DNA complexes; type: physicochemical; details: complexes with pGL4 plasmid DNA
Experimental: as §1, with “with plasmid DNA.” for “with mRNA.”, “ADGN peptide/plasmid DNA pGL4” for “ADGN peptide/mRNA”, “of ADGN-Peptide/pGL4.” for “of ADGN-Peptide/mRNA.”, “using (0.2 μg). PGL4 plasmid (0.15” for “using (0.25 μg) mRNA. Luc mRNA (0.25”, “temperature. 10” for “temperature. 5”
as §2, with “DNA pGL4 a 5.6KpB plasmid expression Luciferase” for “mRNA”, “ADGN/plasmid DNA” for “ADGN/mRNA”, “10” for “8 and FIG. 9”

293T cells = assay: Cellular delivery of pGL4 plasmid DNA expressing Luciferase, luciferase expression at 72 hrs; type: cell-based; details: for reduction of efficiency / luciferase expression in the presence of serum: complexes incubated 3 hrs in 25% serum prior transfection; for reduction of efficiency / luciferase expression in heparan sulfate: complexes incubated 3 hrs with heparan sulfate prior transfection
Experimental: FIGS. 2A-2C show luciferase expression in 293T cells treated with ADGN-peptide/pGL4 plasmid DNA complexes. 293T cells cultured in 48 well plates were transfected with ADGN-peptide nanoparticles. ADGN-100, ADGN-106, ADGN-100RI, ADGN-106RI, ADGN-100 Stearyl, ADGN-Hydro1, ADGN-Hydro2, ADGN-Hydro3, ADGN-Hydro4, ADGN-Hydro5, and ADGN-Hydro6 containing 0.17 μg pGL4 plasmid DNA were formed in sterile water, diluted in sterile water containing 5% Sucrose. ADGN-peptide nanoparticles were evaluated prior (FIG. 2A) and after filtration with 0.45 μm PES filters (FIG. 2B). FIG. 2C impact of peGylated ADGN-100 on the transfection efficiency. pGL4 luc plasmid (0.15 μg) were associated to ADGN-100 solution containing 5 to 50% of ADGN-100-PEG or to ADGN-100PEG. ADGN/pGL4 plasmid DNA complexes were incubated for 3 hrs in the presence of either 25% serum or heparan sulfate prior transfection. Luciferase expression was monitored 72 hours post transfection and results were reported as RLU (luminescence):mg of protein.
as §1, with “with plasmid DNA.” for “with mRNA.”, “ADGN peptide/plasmid DNA pGL4” for “ADGN peptide/mRNA”, “of ADGN-Peptide/pGL4.” for “of ADGN-Peptide/mRNA.”, “using (0.2 μg). PGL4 plasmid (0.15” for “using (0.25 μg) mRNA. Luc mRNA (0.25”, “temperature. 10” for “temperature. 5”
Transfection protocol. Protocol is reported for 24 well plate format. Cells were cultured in Dulbecco's Modified Eagle's Medium (DMEM), supplemented with 2 mM glutamine, 1% antibiotics (streptomycin 10,000 μg/mL, penicillin, 10,000 IU/mL) and 10% (w/v) foetal calf serum (FCS), at 37° C. in a humidified atmosphere containing 5% CO2. 24 well plates seeded with 150,000 cells the day prior to transfection were grown to 50-60% confluence and set up to be at about 70% confluences at the time of transfection. Before transfection, cells were washed twice with DMEM. […]
ADGN-peptides were evaluated for cellular delivery of pGL4 plasmid DNA expressing Luciferase in 293T cells. […] In order to evaluate the stability of the ADGN/pGL4 plasmid complexes in high serum and cell culture conditions, the complexes were incubated for 3 hrs in the presence of either 25% serum or heparan sulfate prior transfection, then 293T cells were transfected and Luciferase expression was monitored at 72 hrs.

Ac-YIGSR-Aun-KWRSALWRWRLWRVRSWSR-NH2 (YIGSRKWRSALWRWRLWRVRSWSR; Ac-YIGSR-Aun linker, C-terminal amide; VARIANT 1 N-terminal acetylation; VARIANT 24 C-terminal amidation; VARIANT 5, 6 Linked by a 11-amino-undecanoic acid) [ADGN-100-Hydro-5]
aggregates [1]: less than 4%
aggregates [2]: less than 4%
reduction of efficiency / luciferase expression in the presence of serum (293T cells): 30-40%
reduction of efficiency / luciferase expression in heparan sulfate (293T cells): 10-20%

Ac-YIGSR-(G)4-KWRSALWRWRLWRVRSWSR-NH2 (YIGSRGGGGKWRSALWRWRLWRVRSWSR; N-acetyl, C-terminal amide; VARIANT 1 N-terminal acetylation; VARIANT 28 C-terminal amidation) [ADGN-100-Hydro-1]
reduction of efficiency / luciferase expression in the presence of serum (293T cells): 30-40%
reduction of efficiency / luciferase expression in heparan sulfate (293T cells): 10-20%

From US12357695B2, “Peptides and nanoparticles for intracellular delivery of molecules” (AADIGEN, LLC, priority 2019, dated 2025)
